Values from PubChem BioAssay AID1224828 (NIAID, 2016)
Screen: 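Knock-downs that increase or decrease LPS-induced p65 nuclear translocation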 (primary screen). Cell system: mouse RAW264.7 G9 macrophage reporter cells (GFP-p65, Tnf promoter-mCherry). Knock-down reagent: siRNA pool against mouse genes, 100 nM. Time to read-out: 2 days siRNA transfection, then 40 min LPS before fixation. Challenge: LPS (Salmonella minnesota R595) at 10 ng/ml. Detection: 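Imaged p65 nuclear translocation ratio, normalised to the plate median, converted to robust z-scores and averaged across two replicates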. Direction: p65 translocation robust z-score: higher = more nuclear NF-kappaB p65 after LPS than the plate median; nuclear/cytoplasmic p65 ratio: higher = more nuclear NF-kappaB p65. Rule for the call: 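Active if robust z is above 3.3 (negative regulators) or below -1.56, the Tlr4 control median (positive regulators); activity score 50 or more; control wells not called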. Meaning of the calls: active = hit (p65 shift raised or lowered); inactive = no clear change.
This is one part, drawn at random, of about 17,000 reagents. 762 of them (4.5%) were called active. 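Active calls include both raised and lowered p65 entry, mostly lowered; wells with fewer than 50 cells lack a z-score.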 Raw values vary from plate to plate and are shown uncorrected.

gene,PubChem SID,p65 translocation robust z-score,"nuclear/cytoplasmic p65 ratio, rep 1","nuclear/cytoplasmic p65 ratio, rep 2",low cell count flag,activity call
Tacc2 (GeneID 57752),SID315471810,0.52,1.57,1.62,enough cells to score,inactive
Slc22a4 (GeneID 30805),SID315470751,0.58,1.45,1.35,enough cells to score,inactive
Gfra1 (GeneID 14585),SID315466886,0.12,1.46,1.38,enough cells to score,inactive
Rp9 (GeneID 55934),SID315471306,0.97,1.51,1.36,enough cells to score,inactive
Bud13 (GeneID 215051),SID315477906,-0.48,1.5,1.71,enough cells to score,inactive
Uhrf1 (GeneID 18140),SID315468217,0.61,1.58,1.6,enough cells to score,inactive
Ugt1a2 (GeneID 22236),SID315469928,,1.03,1.56,fewer than 50 cells per well; well left out of scoring,inactive
Top3b (GeneID 21976),SID315469795,-1.23,1.43,1.27,enough cells to score,inactive
Coq8b (GeneID 76889),SID315475399,-0.69,1.63,1.25,enough cells to score,inactive
Itsn1 (GeneID 16443),SID315467540,0.11,1.5,1.39,enough cells to score,inactive
Git1 (GeneID 216963),SID315478058,-0.39,1.65,1.3,enough cells to score,inactive
Mta3 (GeneID 116871),SID315477067,0.65,1.91,1.67,enough cells to score,inactive
Myl10 (GeneID 59310),SID315472002,0.38,1.75,1.74,enough cells to score,inactive
Ppp1r14a (GeneID 68458),SID315473535,-0.38,1.44,1.36,enough cells to score,inactive
Dsg3 (GeneID 13512),SID315466394,0.14,1.72,1.38,enough cells to score,inactive
Zbtb8b (GeneID 215627),SID315477939,,1.33,1.08,fewer than 50 cells per well; well left out of scoring,inactive
Or52n3 (GeneID 258810),SID315480455,,1.45,1.21,fewer than 50 cells per well; well left out of scoring,inactive
Pstpip1 (GeneID 19200),SID315468757,-0.21,1.57,1.29,enough cells to score,inactive
Ndufv3 (GeneID 78330),SID315475566,-0.38,1.42,1.46,enough cells to score,inactive
Nxnl1 (GeneID 234404),SID315479163,-2.23,1.13,1.17,enough cells to score,active
Med12 (GeneID 59024),SID315471958,-1.56,1.24,1.35,enough cells to score,inactive
Sh3gl3 (GeneID 20408),SID315469216,-0.46,1.54,1.43,enough cells to score,inactive
Itgbl1 (GeneID 223272),SID315478254,1.34,1.68,1.54,enough cells to score,inactive
Aldh1l1 (GeneID 107747),SID315476637,1.82,1.88,1.7,enough cells to score,inactive
Pafah2 (GeneID 100163),SID315476210,-0.48,1.35,1.38,enough cells to score,inactive
Apc2 (GeneID 23805),SID315470180,-0.39,1.52,1.6,enough cells to score,inactive
Cdca5 (GeneID 67849),SID315473259,,0,1.81,fewer than 50 cells per well; well left out of scoring,inactive
Atg4c (GeneID 242557),SID315479624,,1.7,1.92,fewer than 50 cells per well; well left out of scoring,inactive
Or52a24 (GeneID 259159),SID315480719,,1.72,1.58,fewer than 50 cells per well; well left out of scoring,inactive
Irx3 (GeneID 16373),SID315467499,-2.28,1.24,1.11,enough cells to score,active
Dbx2 (GeneID 223843),SID315478299,-0.87,1.3,1.42,enough cells to score,inactive

An excerpt from the list above:
gene,PubChem SID,p65 translocation robust z-score,"nuclear/cytoplasmic p65 ratio, rep 1","nuclear/cytoplasmic p65 ratio, rep 2",low cell count flag,activity call
Uhrf1 (GeneID 18140),SID315468217,0.61,1.58,1.6,enough cells to score,inactive
Ugt1a2 (GeneID 22236),SID315469928,,1.03,1.56,fewer than 50 cells per well; well left out of scoring,inactive
Top3b (GeneID 21976),SID315469795,-1.23,1.43,1.27,enough cells to score,inactive
Coq8b (GeneID 76889),SID315475399,-0.69,1.63,1.25,enough cells to score,inactive
Itsn1 (GeneID 16443),SID315467540,0.11,1.5,1.39,enough cells to score,inactive

The listing continues.
gene,PubChem SID,p65 translocation robust z-score,"nuclear/cytoplasmic p65 ratio, rep 1","nuclear/cytoplasmic p65 ratio, rep 2",low cell count flag,activity call
Ifi204 (GeneID 15951),SID315467381,-0.17,1.43,1.34,enough cells to score,inactive
Osbpl10 (GeneID 74486),SID315474989,,1.31,1.42,fewer than 50 cells per well; well left out of scoring,inactive
Osbpl10 (GeneID 74486),SID315481077,0.98,1.74,1.94,enough cells to score,inactive
Gpr107 (GeneID 277463),SID315480994,0.88,1.73,1.83,enough cells to score,inactive
Afg3l1 (GeneID 114896),SID315477052,0.07,1.54,1.77,enough cells to score,inactive
Vash2 (GeneID 226841),SID315478528,-0.7,1.44,1.47,enough cells to score,inactive
Ptpn21 (GeneID 24000),SID315470281,-1.14,1.33,1.27,enough cells to score,inactive
Scgn (GeneID 214189),SID315477848,0.88,1.59,1.27,enough cells to score,inactive
Arhgap15 (GeneID 76117),SID315475246,-1.07,1.38,1.42,enough cells to score,inactive
Cep15 (GeneID 218734),SID315478210,-1.47,1.16,1.03,enough cells to score,inactive
Phkg2 (GeneID 68961),SID315473682,-0.5,1.67,1.31,enough cells to score,inactive
Cenph (GeneID 26886),SID315470458,0.18,1.45,1.44,enough cells to score,inactive
Slc7a6 (GeneID 330836),SID315481620,-1.63,1.29,1.5,enough cells to score,active
Or9s18 (GeneID 258816),SID315480460,-0.17,1.45,1.23,enough cells to score,inactive
Ccdc117 (GeneID 104479),SID315476448,0.24,1.32,1.89,enough cells to score,inactive
Igtp (GeneID 16145),SID315467417,-0.47,1.49,1.36,enough cells to score,inactive
Clec4f (GeneID 51811),SID315470914,-0.6,1.51,1.68,enough cells to score,inactive
Paral1 (GeneID 228642),SID315478646,-0.83,1.39,1.78,enough cells to score,inactive
Chchd7 (GeneID 66433),SID315472439,-1.07,1.22,1.27,enough cells to score,inactive
Cybc1 (GeneID 217370),SID315478120,0.31,1.62,1.91,enough cells to score,inactive
Mrpl2 (GeneID 27398),SID315470607,-0.63,1.75,1.44,enough cells to score,inactive
Cd99l2 (GeneID 171486),SID315477365,-1.61,1.45,1.32,enough cells to score,active
Papss2 (GeneID 23972),SID315470267,-0.31,1.51,1.34,enough cells to score,inactive
Parp12 (GeneID 243771),SID315479703,,1.18,1.15,fewer than 50 cells per well; well left out of scoring,inactive
Odc1 (GeneID 18263),SID315468286,-0.48,1.38,1.36,enough cells to score,inactive
Ak2 (GeneID 11637),SID315465367,-0.35,1.56,1.4,enough cells to score,inactive
Kcnrg (GeneID 328424),SID315481482,1.4,1.65,1.55,enough cells to score,inactive
Hvcn1 (GeneID 74096),SID315474841,-1.09,1.37,1.32,enough cells to score,inactive
